Measurements as given in PMC6042199, “Inhibitory effects against α-glucosidase and α-amylase of the flavonoids-rich extract from Scutellaria baicalensis shoots and interpretation of structure–activity relationship of its eight flavonoids by a refined assign-score method” (Chemistry Central Journal, 2018).

Test system: yeast α-glucosidase from Saccharomyces cerevisiae
Test: α-glucosidase inhibitory effect (pNPG, AUC of absorbance at 405 nm)
Assay type: biochemical
Settings: Contribution = [Ei/E0] × C × 100
Method: All solvents (analytical grade) were bought from Beijing Chemical Factory, and purified water was from a mili-Q system (Millipore, Billerica, MA).
α-Glucosidase inhibitory effect was assayed as reported by Zhang et al.. […] Then, 30 μL pNPG solution (2 mM pNPG in 0.1 mM phosphate buffer) was added quickly to initiate the enzyme reaction. Absorbance was monitored at 405 nm every 15 min for 2 h using a microplate reader (Tecan infinite 200, Swiss).

SMILES	Contribution to the overall enzyme inhibitory effect of the extract, α-glucosidase [%]
O=c1cc(-c2ccccc2)oc2cc(O)c(O)c(O)c12 [Baicalein, baicalein]	23.29 ± 1.03
O=C(O)[C@H]1O[C@@H](Oc2cc3oc(-c4ccc(O)cc4)cc(=O)c3c(O)c2O)[C@H](O)[C@@H](O)[C@@H]1O [Scutellarin, scutellarin]	14.74 ± 0.27
